# The list shows a part of the results.
# Protein sequences, listed by entry. Tags and fused reporters are not part of them. Lines headed by an entry give the natural chain unless they say otherwise; changes in a name come on top.
# UniProt Q6P996: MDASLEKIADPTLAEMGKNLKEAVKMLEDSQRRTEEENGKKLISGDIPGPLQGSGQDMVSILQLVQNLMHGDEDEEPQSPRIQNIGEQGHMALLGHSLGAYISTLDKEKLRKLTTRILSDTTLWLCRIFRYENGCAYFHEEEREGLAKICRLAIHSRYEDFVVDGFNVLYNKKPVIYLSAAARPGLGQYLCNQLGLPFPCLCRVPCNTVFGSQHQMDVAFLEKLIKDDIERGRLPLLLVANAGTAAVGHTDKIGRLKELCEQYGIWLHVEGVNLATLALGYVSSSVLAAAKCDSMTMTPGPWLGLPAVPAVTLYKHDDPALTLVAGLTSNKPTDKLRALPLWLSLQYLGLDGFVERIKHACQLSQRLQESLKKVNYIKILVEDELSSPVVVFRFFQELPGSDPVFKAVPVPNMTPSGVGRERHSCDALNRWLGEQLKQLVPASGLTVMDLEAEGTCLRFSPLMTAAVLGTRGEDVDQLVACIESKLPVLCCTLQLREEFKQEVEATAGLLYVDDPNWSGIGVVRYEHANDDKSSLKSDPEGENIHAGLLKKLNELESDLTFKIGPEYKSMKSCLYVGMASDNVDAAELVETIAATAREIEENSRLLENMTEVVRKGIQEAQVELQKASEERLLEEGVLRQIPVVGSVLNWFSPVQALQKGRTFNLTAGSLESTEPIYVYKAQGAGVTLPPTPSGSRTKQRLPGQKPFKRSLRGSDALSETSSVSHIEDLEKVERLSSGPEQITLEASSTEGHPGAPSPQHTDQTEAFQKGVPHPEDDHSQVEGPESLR
# UniProt P35227: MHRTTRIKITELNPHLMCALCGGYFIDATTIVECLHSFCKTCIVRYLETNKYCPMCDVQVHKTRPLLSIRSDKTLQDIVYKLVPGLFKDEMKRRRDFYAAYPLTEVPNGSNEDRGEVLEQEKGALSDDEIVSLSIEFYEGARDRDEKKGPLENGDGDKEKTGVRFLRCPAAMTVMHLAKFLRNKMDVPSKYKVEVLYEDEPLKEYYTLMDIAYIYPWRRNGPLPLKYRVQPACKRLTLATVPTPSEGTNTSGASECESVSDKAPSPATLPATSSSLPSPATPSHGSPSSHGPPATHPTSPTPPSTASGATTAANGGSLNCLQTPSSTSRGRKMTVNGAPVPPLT
# UniProt P12004, whole entry, looked up: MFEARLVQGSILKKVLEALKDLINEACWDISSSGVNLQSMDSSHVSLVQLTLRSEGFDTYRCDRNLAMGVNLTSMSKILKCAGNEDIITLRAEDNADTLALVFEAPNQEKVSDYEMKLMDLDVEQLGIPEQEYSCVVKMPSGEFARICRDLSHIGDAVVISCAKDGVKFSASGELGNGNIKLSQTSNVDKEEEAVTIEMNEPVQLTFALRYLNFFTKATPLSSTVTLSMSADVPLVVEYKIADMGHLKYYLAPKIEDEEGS
# UniProt O94913, whole entry, looked up: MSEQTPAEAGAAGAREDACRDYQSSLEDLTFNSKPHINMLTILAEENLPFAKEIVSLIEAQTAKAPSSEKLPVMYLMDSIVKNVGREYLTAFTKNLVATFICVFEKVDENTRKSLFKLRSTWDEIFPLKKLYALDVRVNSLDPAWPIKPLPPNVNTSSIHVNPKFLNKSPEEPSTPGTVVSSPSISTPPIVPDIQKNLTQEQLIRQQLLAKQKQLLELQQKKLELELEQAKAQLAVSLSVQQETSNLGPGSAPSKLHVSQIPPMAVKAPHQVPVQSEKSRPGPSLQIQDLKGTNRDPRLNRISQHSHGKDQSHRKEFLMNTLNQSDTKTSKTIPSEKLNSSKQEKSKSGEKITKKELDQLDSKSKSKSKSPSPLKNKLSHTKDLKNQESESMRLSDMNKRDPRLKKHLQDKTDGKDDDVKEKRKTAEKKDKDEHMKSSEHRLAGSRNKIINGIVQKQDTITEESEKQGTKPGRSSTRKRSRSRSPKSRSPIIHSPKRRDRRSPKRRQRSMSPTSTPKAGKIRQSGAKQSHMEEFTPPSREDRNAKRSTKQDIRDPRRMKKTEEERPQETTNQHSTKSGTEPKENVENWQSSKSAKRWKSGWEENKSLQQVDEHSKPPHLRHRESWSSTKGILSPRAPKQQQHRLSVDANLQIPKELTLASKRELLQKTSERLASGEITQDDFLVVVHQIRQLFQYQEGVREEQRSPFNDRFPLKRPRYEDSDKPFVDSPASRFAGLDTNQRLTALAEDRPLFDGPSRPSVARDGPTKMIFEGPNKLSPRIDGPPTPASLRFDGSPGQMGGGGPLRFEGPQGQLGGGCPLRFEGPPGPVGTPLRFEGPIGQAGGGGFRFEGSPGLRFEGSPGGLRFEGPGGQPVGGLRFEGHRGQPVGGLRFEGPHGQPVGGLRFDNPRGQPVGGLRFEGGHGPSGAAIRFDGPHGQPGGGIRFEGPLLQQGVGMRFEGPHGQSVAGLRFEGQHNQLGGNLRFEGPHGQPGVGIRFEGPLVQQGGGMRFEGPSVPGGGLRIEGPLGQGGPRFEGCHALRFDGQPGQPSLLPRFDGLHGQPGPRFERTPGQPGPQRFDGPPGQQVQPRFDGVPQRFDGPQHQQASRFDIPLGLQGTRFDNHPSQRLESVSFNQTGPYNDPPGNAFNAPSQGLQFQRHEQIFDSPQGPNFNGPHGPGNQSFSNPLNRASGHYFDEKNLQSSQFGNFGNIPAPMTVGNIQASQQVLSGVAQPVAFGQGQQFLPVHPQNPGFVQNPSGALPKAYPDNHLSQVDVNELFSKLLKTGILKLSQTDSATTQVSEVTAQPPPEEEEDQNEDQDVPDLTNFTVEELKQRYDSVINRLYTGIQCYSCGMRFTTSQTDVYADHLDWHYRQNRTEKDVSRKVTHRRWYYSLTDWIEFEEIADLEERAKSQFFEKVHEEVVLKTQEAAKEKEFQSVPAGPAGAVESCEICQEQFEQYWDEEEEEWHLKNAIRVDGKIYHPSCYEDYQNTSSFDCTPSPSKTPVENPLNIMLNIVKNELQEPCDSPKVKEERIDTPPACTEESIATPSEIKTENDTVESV
# UniProt Q8WUM4: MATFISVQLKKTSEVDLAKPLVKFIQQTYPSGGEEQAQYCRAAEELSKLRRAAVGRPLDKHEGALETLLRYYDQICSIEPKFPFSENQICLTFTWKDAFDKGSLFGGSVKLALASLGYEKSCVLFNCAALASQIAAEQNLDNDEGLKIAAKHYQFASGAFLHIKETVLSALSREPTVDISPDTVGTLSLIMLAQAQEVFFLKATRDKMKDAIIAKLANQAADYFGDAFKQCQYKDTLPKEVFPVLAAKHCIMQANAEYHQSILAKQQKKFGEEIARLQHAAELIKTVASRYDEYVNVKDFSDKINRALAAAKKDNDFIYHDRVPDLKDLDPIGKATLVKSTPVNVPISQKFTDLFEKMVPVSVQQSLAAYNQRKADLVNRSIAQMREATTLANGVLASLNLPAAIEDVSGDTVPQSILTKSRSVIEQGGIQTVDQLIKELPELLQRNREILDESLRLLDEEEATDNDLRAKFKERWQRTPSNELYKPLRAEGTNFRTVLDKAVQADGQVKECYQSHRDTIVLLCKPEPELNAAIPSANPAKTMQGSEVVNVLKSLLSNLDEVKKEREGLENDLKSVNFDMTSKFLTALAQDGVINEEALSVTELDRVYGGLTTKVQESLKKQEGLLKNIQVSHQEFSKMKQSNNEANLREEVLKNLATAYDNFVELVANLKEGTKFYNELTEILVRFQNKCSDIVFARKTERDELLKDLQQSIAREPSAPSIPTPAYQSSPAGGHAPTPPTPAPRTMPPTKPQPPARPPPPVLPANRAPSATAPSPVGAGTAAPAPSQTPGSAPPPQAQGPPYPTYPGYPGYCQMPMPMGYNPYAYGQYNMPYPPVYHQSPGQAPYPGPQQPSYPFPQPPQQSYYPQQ
# UniProt Q9BVG4: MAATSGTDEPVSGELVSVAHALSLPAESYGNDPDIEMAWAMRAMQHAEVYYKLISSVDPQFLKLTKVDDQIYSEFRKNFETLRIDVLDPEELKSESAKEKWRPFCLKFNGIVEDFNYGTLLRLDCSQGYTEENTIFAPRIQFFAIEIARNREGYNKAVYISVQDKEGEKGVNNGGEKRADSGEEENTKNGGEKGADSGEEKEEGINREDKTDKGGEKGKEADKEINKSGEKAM
# UniProt Q9H0N5: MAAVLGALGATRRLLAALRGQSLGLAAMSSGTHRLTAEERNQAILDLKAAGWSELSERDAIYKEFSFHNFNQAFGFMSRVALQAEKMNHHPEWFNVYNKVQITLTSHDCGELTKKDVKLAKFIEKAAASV
# UniProt Q6L8Q7: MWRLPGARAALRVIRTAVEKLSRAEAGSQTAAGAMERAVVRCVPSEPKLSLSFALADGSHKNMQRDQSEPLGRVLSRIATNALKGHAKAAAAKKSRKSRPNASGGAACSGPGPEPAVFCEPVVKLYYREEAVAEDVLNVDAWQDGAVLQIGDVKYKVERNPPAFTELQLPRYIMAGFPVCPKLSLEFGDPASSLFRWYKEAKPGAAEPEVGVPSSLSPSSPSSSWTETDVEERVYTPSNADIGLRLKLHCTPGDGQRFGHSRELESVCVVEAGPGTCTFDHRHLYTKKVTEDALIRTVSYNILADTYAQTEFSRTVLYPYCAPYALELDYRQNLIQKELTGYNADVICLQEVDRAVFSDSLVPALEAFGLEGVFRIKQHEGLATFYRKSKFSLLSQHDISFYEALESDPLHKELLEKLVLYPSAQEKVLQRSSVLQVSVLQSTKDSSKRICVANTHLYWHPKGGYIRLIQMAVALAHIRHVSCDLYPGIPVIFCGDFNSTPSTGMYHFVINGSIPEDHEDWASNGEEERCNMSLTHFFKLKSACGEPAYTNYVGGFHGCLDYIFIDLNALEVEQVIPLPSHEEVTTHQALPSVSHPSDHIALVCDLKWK
# UniProt Q9Y5K3: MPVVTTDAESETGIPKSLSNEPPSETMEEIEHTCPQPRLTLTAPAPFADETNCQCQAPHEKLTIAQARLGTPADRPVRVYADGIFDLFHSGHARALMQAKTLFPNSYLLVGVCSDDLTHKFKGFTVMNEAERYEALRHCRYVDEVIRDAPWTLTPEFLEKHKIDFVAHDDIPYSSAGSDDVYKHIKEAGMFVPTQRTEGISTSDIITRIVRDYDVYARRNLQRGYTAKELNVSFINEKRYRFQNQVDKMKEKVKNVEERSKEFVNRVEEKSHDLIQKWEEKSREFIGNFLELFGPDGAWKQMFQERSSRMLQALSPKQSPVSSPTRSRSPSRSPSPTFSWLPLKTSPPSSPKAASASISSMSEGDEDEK
# UniProt P30039: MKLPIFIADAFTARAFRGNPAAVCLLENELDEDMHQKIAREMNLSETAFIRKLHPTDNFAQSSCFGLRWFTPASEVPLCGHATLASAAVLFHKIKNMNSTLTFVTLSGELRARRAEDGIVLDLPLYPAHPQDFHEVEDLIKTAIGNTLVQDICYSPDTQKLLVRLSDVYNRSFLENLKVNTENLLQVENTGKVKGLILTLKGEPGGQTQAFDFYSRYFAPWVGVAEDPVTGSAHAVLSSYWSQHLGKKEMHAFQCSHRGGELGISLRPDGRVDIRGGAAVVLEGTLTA
# UniProt Q15366, whole entry, looked up: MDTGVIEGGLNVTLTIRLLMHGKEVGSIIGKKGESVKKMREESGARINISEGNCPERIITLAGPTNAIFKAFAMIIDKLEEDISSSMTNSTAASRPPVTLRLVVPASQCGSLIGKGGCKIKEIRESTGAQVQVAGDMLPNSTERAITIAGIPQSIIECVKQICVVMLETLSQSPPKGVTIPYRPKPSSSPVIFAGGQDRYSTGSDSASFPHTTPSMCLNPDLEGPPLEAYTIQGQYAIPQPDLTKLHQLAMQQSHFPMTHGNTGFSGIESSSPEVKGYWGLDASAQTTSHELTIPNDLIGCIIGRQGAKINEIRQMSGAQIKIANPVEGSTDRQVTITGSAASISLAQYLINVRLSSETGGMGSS
# UniProt P08237: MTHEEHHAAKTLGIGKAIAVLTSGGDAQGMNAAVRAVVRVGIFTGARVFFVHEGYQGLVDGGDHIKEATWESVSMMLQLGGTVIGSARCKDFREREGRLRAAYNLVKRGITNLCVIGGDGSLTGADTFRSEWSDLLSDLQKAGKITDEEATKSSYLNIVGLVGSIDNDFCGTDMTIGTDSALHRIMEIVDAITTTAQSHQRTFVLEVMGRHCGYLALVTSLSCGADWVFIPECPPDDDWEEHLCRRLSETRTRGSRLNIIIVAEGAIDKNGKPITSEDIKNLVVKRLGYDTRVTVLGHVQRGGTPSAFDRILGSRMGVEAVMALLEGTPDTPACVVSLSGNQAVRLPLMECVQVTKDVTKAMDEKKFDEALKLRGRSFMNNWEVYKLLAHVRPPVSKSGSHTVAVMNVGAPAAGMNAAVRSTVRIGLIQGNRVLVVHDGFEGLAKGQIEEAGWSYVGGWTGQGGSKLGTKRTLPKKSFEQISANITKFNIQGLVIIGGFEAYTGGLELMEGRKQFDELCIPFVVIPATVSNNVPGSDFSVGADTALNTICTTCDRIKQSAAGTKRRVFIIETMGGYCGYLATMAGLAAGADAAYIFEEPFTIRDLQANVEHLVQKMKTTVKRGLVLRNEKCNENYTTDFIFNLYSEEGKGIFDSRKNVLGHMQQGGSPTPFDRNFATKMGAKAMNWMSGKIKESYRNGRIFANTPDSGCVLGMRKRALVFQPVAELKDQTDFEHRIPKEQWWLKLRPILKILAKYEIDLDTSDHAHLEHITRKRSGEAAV
# How the values were obtained:
# Assay in all cases: log2 fold change, soluble protein after heating vs DMSO (PISA); higher = thermal stabilisation; K562 lysate, 10 uM; active = over 0.2 and 3.5 SD of the protein, either way, in both replicates (recomputed)
# vemurafenib = compound: CCCS(=O)(=O)Nc1ccc(F)c(C(=O)c2c[nH]c3ncc(-c4ccc(Cl)cc4)cc23)c1F [vemurafenib]
# How it was run: (§1)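 To prepare the extract, K562 pellets were dounce-homogenised in PBS pH 7.4 with 1 mM MgCl2, giving crude material at 1 mg/mL protein. This was treated with 10 μM compound for 30 min, then heated in aliquots for 3 min over 48°C-58°C before pooling and addition of NP-40 to 0.5% at 4°C. Centrifugation at 21,000xg for 90 min left soluble protein in the supernatant, which TMTpro 16plex LC-MS/MS quantified with equalised channel sums. Results are log-two fold changes in thermal stability compared with solvent controls, from duplicates.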
# [1] = compound: CCCS(=O)(=O)Nc1ccc(F)c(C(=O)c2c[nH]c3ncc(Cl)cc23)c1F
# How it was run: as §1
# barasertib = compound: CCN(CCCOc1ccc2c(Nc3cc(CC(=O)Nc4cccc(F)c4)[nH]n3)ncnc2c1)CCOP(=O)(O)O [barasertib]
# How it was run: as §1
# [2] = compound: CC[C@@H]1C(=O)N(C)c2cnc(Nc3ccc(C(=O)NC4CCN(C)CC4)cc3OC)nc2N1C1CCCC1
# How it was run: as §1
# volasertib = compound: CC[C@@H]1C(=O)N(C)c2cnc(Nc3ccc(C(=O)N[C@H]4CC[C@H](N5CCN(CC6CC6)CC5)CC4)cc3OC)nc2N1C(C)C [volasertib]
# How it was run: as §1
# [3] = compound: CCn1c(C(=O)N(C2CC2)C2CC2)cc2c3c(ncn3C)c(Nc3cc(C)n(C)n3)nc21
# How it was run: as §1
# [4] = compound: CCn1cc(-c2ccnc3[nH]c(-c4cccc(CN(C)C)c4)cc23)c(-c2ccc(NC(=O)N(C)C)cc2)n1
# How it was run: as §1
# [5] = compound: CN1CCC(CNc2ccc3ncc(-c4cccc(OC(F)(F)F)c4)n3n2)CC1
# How it was run: as §1
# saracatinib = compound: CN1CCN(CCOc2cc(OC3CCOCC3)c3c(Nc4c(Cl)ccc5c4OCO5)ncnc3c2)CC1 [saracatinib]
# How it was run: as §1
# sotrastaurin = compound: CN1CCN(c2nc(C3=C(c4c[nH]c5ccccc45)C(=O)NC3=O)c3ccccc3n2)CC1 [sotrastaurin]
# How it was run: as §1
# alvocidib = compound: CN1CC[C@H](c2c(O)cc(O)c3c(=O)cc(-c4ccccc4Cl)oc23)[C@H](O)C1 [alvocidib]
# How it was run: as §1
# Tubastatin A = compound: CN1CCc2c(c3ccccc3n2Cc2ccc(C(=O)NO)cc2)C1 [Tubastatin A]
# How it was run: as §1
# [6] = compound: CNC(=O)C1=CC=CC=C1NC2=NC(=NC=C2Cl)NC3=C(C=C(C=C3)N4CCOCC4)OC
# How it was run: as §1
# defactinib = compound: CNC(=O)c1ccc(Nc2ncc(C(F)(F)F)c(NCc3nccnc3N(C)S(C)(=O)=O)n2)cc1 [defactinib]
# How it was run: as §1
# [7] = compound: CNc1nc(-c2ccc3c(N)n[nH]c3c2)cc(N2C[C@@H](C(=O)NC3CCCCC3)CC[C@H]2C)n1
# How it was run: as §1
# encorafenib = compound: COC(=O)N[C@@H](C)CNc1nccc(-c2cn(C(C)C)nc2-c2cc(Cl)cc(NS(C)(=O)=O)c2F)n1 [encorafenib]
# How it was run: as §1
# [8] = compound: COC(=O)[C@H](CCSC)NC(=O)C1=C(C=C(C=C1)NC[C@H](CS)N)C2=CC=CC=C2
# How it was run: as §1
# alisertib = compound: COc1cc(Nc2ncc3c(n2)-c2ccc(Cl)cc2C(c2c(F)cccc2OC)=NC3)ccc1C(=O)O [alisertib]
# How it was run: as §1
# [9] = compound: COc1cc2nc(-c3cc(F)ccc3O)nc(N[C@@H]3CNC[C@H]3C(C)(C)O)c2cc1OC
# How it was run: as §1
# gefitinib = compound: COc1cc2ncnc(Nc3ccc(F)c(Cl)c3)c2cc1OCCCN1CCOCC1 [gefitinib]
# How it was run: as §1
Target,log2 fold change (vemurafenib),log2 fold change [1],log2 fold change (barasertib),log2 fold change [2],log2 fold change (volasertib),log2 fold change [3],log2 fold change [4],log2 fold change [5],log2 fold change (saracatinib),log2 fold change (sotrastaurin),log2 fold change (alvocidib),log2 fold change (Tubastatin A),log2 fold change [6],log2 fold change (defactinib),log2 fold change [7],log2 fold change (encorafenib),log2 fold change [8],log2 fold change (alisertib),log2 fold change [9],log2 fold change (gefitinib)
PDXDC1 (UniProt Q6P996),inactive: -0.005,inactive: -0.02,inactive: 0.008,inactive: 0.03,inactive: -0.059,inactive: -0.004,inactive: -0.031,inactive: -0.067,inactive: -0.005,inactive: 0.015,inactive: -0.005,inactive: -0.065,inactive: -0.007,inactive: 0.034,inactive: 0.088,inactive: 0.058,inactive: 0.085,inactive: 0.049,inactive: -0.006,inactive: 0.032
PCGF2 (UniProt P35227),inactive: 0.029,inactive: 0.104,inactive: 0.014,inactive: 0.088,inactive: -0.008,inactive: 0.084,inactive: 0.031,inactive: -0.089,inactive: 0.024,inactive: -0.003,inactive: 0.006,inactive: -0.065,inactive: 0.036,inactive: 0.047,inactive: -0.031,inactive: 0.052,inactive: 0.031,inactive: -0.032,inactive: -0.011,inactive: -0.005
PCNA (UniProt P12004),inactive: 0.003,inactive: -0.023,inactive: -0.049,inactive: -0.033,inactive: 0.025,inactive: 0.003,inactive: -0.111,inactive: 0.092,inactive: -0.009,inactive: -0.013,inactive: -0.022,inactive: 0.001,inactive: -0.019,inactive: -0.01,inactive: -0.023,inactive: -0.016,inactive: -0.009,inactive: 0.012,inactive: -0.002,inactive: -0.006
PARP1 (UniProt P09874),inactive: 0.003,inactive: 0.018,inactive: 0.001,inactive: -0.016,inactive: -0.012,inactive: 0.013,inactive: 0.113,inactive: -0.075,inactive: -0.005,inactive: -0.013,inactive: 0.013,inactive: -0.043,inactive: 0.021,inactive: 0.006,inactive: -0.01,inactive: -0.013,inactive: 0.033,inactive: 0.003,inactive: -0.003,inactive: -0.03
PDXK (UniProt O00764),inactive: 0.005,inactive: -0.001,inactive: -0.014,active: 0.329,inactive: 0.025,inactive: -0.004,inactive: -0.134,inactive: 0.156,inactive: -0.023,inactive: -0.016,inactive: -0.031,inactive: -0.005,inactive: 0.027,inactive: 0.047,inactive: 0.06,inactive: -0.032,inactive: -0.012,inactive: -0.038,inactive: 0.016,inactive: -0.022
PCF11 (UniProt O94913),inactive: 0.042,inactive: 0.012,inactive: 0.015,inactive: 0.02,inactive: -0.029,inactive: -0.045,inactive: 0.081,inactive: -0.018,inactive: -0.003,inactive: 0.006,inactive: -0.018,inactive: -0.12,inactive: 0.002,inactive: 0.041,inactive: 0.078,inactive: 0.036,inactive: -0.021,inactive: 0.009,inactive: 0.042,inactive: 0.002
PDCD6IP (UniProt Q8WUM4),inactive: -0.003,inactive: 0.015,inactive: 0.083,inactive: -0.061,inactive: 0.006,inactive: 0.013,inactive: -0.073,inactive: -0.035,inactive: -0.068,inactive: -0.139,inactive: 0.05,inactive: 0,inactive: -0.002,inactive: -0.021,inactive: -0.042,inactive: -0.1,inactive: 0.143,inactive: -0.039,inactive: 0.013,inactive: -0.001
PCK2 (UniProt Q16822),inactive: 0.005,inactive: 0.028,inactive: 0.013,inactive: 0.009,inactive: -0.022,inactive: -0.03,inactive: -0.015,inactive: 0.01,inactive: -0.047,inactive: -0.05,inactive: 0.023,inactive: 0.035,inactive: -0.026,inactive: 0.019,inactive: 0.033,inactive: -0.017,inactive: -0.017,inactive: 0.007,inactive: -0.012,inactive: -0.013
PBDC1 (UniProt Q9BVG4),inactive: -0.022,inactive: -0.006,inactive: 0.009,inactive: 0.003,inactive: 0.012,inactive: 0.01,inactive: 0.037,inactive: -0.007,inactive: -0.009,inactive: 0.006,inactive: 0.006,inactive: 0.016,inactive: -0.02,inactive: -0.031,inactive: 0.023,inactive: 0.005,inactive: -0.04,inactive: -0.032,inactive: -0.009,inactive: -0.062
PCBD2 (UniProt Q9H0N5),inactive: 0.004,inactive: -0.017,inactive: 0.013,inactive: 0.018,inactive: 0.016,inactive: 0.031,inactive: -0.237,inactive: 0.11,inactive: -0.05,inactive: 0.055,inactive: -0.124,inactive: 0.012,inactive: 0.01,inactive: -0.045,inactive: -0.059,inactive: -0.008,inactive: -0.039,inactive: 0.058,inactive: 0.031,inactive: 0.071
PDE12 (UniProt Q6L8Q7),inactive: -0.008,inactive: 0.013,inactive: -0.015,inactive: -0.016,inactive: -0.027,inactive: -0.022,inactive: 0.028,inactive: -0.017,inactive: -0.026,inactive: -0.02,inactive: 0.006,inactive: 0.012,inactive: -0.006,inactive: 0,inactive: 0.027,inactive: -0.021,inactive: 0.016,inactive: -0.043,inactive: 0.029,inactive: 0.015
PCYT1B (UniProt Q9Y5K3),inactive: 0.013,inactive: 0.011,inactive: 0.012,inactive: 0.046,inactive: 0.017,inactive: 0.008,inactive: -0.094,inactive: 0.063,inactive: 0.012,inactive: -0.002,inactive: -0.007,inactive: -0.023,inactive: 0.033,inactive: 0.01,inactive: 0.086,inactive: 0.047,inactive: -0.025,inactive: 0.033,inactive: -0.02,inactive: 0.033
PBLD (UniProt P30039),inactive: 0.08,inactive: -0.014,inactive: -0.019,inactive: -0.132,inactive: -0.055,inactive: 0.122,inactive: -0.097,inactive: -0.063,inactive: -0.092,inactive: 0.001,inactive: 0.038,inactive: 0.197,inactive: -0.042,inactive: -0.047,inactive: 0.176,inactive: 0.04,inactive: 0.118,inactive: 0.018,inactive: -0.012,inactive: -0.006
PCBP2 isoform 3 (UniProt Q15366),inactive: -0.059,inactive: -0.004,inactive: -0.006,inactive: -0.021,inactive: -0.003,inactive: 0.057,inactive: -0.022,inactive: -0.002,inactive: -0.017,inactive: -0.006,inactive: 0.038,inactive: -0.074,inactive: 0.017,inactive: 0.006,inactive: -0.075,inactive: 0.049,inactive: -0.048,inactive: -0.001,inactive: -0.006,inactive: -0.009
PCMT1 isoform 2 (UniProt P22061),inactive: 0.019,inactive: -0.006,inactive: 0.055,inactive: 0.006,inactive: -0.014,inactive: 0.028,inactive: 0.054,inactive: -0.043,inactive: -0.002,inactive: -0.018,inactive: 0.032,inactive: 0,inactive: -0.005,inactive: 0.009,inactive: 0.024,inactive: -0.007,inactive: -0.107,inactive: 0.038,inactive: -0.027,inactive: -0.018
PFKM isoform 3 (UniProt P08237),inactive: -0.044,inactive: -0.061,inactive: -0.005,inactive: 0.007,inactive: 0.007,inactive: 0.011,inactive: -0.041,inactive: 0.029,inactive: 0.014,inactive: 0.026,inactive: -0.024,inactive: 0.007,inactive: 0.046,inactive: -0.022,inactive: -0.026,inactive: -0.022,inactive: -0.017,inactive: -0.036,inactive: 0.01,inactive: 0.005

# An excerpt of these results, tab-delimited.
Target	log2 fold change (vemurafenib)	log2 fold change [1]	log2 fold change (barasertib)	log2 fold change [2]	log2 fold change (volasertib)	log2 fold change [3]	log2 fold change [4]	log2 fold change [5]	log2 fold change (saracatinib)	log2 fold change (sotrastaurin)	log2 fold change (alvocidib)	log2 fold change (Tubastatin A)	log2 fold change [6]	log2 fold change (defactinib)	log2 fold change [7]	log2 fold change (encorafenib)	log2 fold change [8]	log2 fold change (alisertib)	log2 fold change [9]	log2 fold change (gefitinib)
PDXDC1 (UniProt Q6P996)	inactive: -0.005	inactive: -0.02	inactive: 0.008	inactive: 0.03	inactive: -0.059	inactive: -0.004	inactive: -0.031	inactive: -0.067	inactive: -0.005	inactive: 0.015	inactive: -0.005	inactive: -0.065	inactive: -0.007	inactive: 0.034	inactive: 0.088	inactive: 0.058	inactive: 0.085	inactive: 0.049	inactive: -0.006	inactive: 0.032
PBDC1 (UniProt Q9BVG4)	inactive: -0.022	inactive: -0.006	inactive: 0.009	inactive: 0.003	inactive: 0.012	inactive: 0.01	inactive: 0.037	inactive: -0.007	inactive: -0.009	inactive: 0.006	inactive: 0.006	inactive: 0.016	inactive: -0.02	inactive: -0.031	inactive: 0.023	inactive: 0.005	inactive: -0.04	inactive: -0.032	inactive: -0.009	inactive: -0.062
